Consider 42 sequences from PMC7819943, “Rice protein-binding microarrays: a tool to detect cis-acting elements near promoter regions in rice”.

The list shows a part of the results.

The assay concerns the target T1, OsSMF1 (Oryza sativa, UniProt Q6ZLB0 1-436).
T1 sequence: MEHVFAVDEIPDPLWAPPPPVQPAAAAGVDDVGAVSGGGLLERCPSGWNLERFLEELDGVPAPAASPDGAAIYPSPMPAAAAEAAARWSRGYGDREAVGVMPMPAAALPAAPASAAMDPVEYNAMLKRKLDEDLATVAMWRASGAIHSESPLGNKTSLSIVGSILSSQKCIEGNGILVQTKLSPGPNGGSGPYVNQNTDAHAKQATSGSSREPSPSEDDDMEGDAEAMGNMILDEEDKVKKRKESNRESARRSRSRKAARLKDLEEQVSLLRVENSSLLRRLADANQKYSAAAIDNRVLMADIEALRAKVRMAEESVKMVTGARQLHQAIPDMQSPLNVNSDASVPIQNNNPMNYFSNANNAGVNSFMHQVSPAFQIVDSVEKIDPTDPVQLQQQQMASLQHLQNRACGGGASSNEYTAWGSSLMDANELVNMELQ
Kind of assay: protein-binding microarray (RPBM); PBS, 2% BSA, 51.3 ng/ul salmon testes DNA, 50 uM zinc acetate, 200 nM TF, 25 C, 1 h; high values mean tight binding. The conditions noted are these: protein: recombinant; tags: N-terminal polyhistidine and DsRed monomer fusion (pET32a); chain copies: 2; label: CyDye5-dUTP incorporated in the synthesized complementary strand; 3' TTTTT single-stranded linker to array surface; dsDNA, one strand shown. Summed up: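 Transcription factors were each fused at the N-terminus to a polyhistidine tag plus DsRed and expressed in E. coli BL21-CodonPlus before Ni–NTA purification. Binding to a double-stranded custom Agilent array was carried out with 200 nM protein at 25 °C for 1 h in PBS, 2% BSA, salmon testes DNA and 50 µM zinc acetate. The binding signal is per-feature fluorescence intensity, in arbitrary units, on an Axon 4000B scanner.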
Regarding “AATTTTGACGTGGAACTAAACCTAAATCGTATCTCGTTATCGGAGTCACCTAGTGCAG”, the binding signal is 6770 fluorescence intensity (a.u.).

Turning to “ATGAAATGGAGGGAGTATCCATTTGCTGACTGCATTGCATCGGAGTCACCTAGTGCAG”, the binding signal was 4100 fluorescence intensity (a.u.).

For “GCCTACCACGCCGTCGTCATCGTCCTCCTCCCTTCGCCCACGGAGTCACCTAGTGCAG”, the binding signal is 7610 fluorescence intensity (a.u.).

With “ATATATGTCCATGGAGGAGGGTGAGGGGAGTAGTAGGGCGCGGAGTCACCTAGTGCAG”, the binding signal is 3540 fluorescence intensity (a.u.).

With “TGAGCCCATTCTATCTTGTACCAATTTGTGGGATATGGCCCGGAGTCACCTAGTGCAG”, the binding signal is 41000 fluorescence intensity (a.u.).

Take “CCACGTGCAGGTTCGCATGTGGGCCTTGAGGCGAGAATTGCGGAGTCACCTAGTGCAG”: the binding signal is 13400 fluorescence intensity (a.u.).

For “GAGGTGCAAAACTTGGTCCATAACCAATTCTCACAAGTGGCGGAGTCACCTAGTGCAG”, the binding signal was 19100 fluorescence intensity (a.u.).

In the case of “TTCACACCCAGATAAATACAGCCTACTAGACCAATAGCCACGGAGTCACCTAGTGCAG”, the binding signal is 40000 fluorescence intensity (a.u.).

As for “GGCGTGGATCGTGGTCGTCGTGGCGAGCTCACCGTGGGCCCGGAGTCACCTAGTGCAG”, the binding signal was 4200 fluorescence intensity (a.u.).

In the case of “TCCATCGGCCTCGCCGCCTACCTCCTCGTCATGATCGTCGCGGAGTCACCTAGTGCAG”, the binding signal is 3190 fluorescence intensity (a.u.).

For “GGCTCGTCGCGTGGAGAGCAACGCTCGCTGCGACCTGCGACGGAGTCACCTAGTGCAG”, the binding signal is 3640 fluorescence intensity (a.u.).

Turning to “AATGCTAAGGGACAACGTCAGCGGGTTAGTGCAAGGTAAGCGGAGTCACCTAGTGCAG”, the binding signal is 6630 fluorescence intensity (a.u.).

Take “GGCCACGTCCGTGGCTTGCTCACTCGCCGCGTCGTCAGCCCGGAGTCACCTAGTGCAG”: the binding signal is 7280 fluorescence intensity (a.u.).

In the case of “CAAAAGATGCCCTGTGTTTCCTCGAGAGGCATTTACGTTGCGGAGTCACCTAGTGCAG”, the binding signal is 3610 fluorescence intensity (a.u.).

Consider “GGCTTCGGCCAGCTAGCCGCCACGTCTCCGCCGGTTTTAACGGAGTCACCTAGTGCAG”, for which the binding signal was 8270 fluorescence intensity (a.u.).

“TCGGTAGAGGGAATGGCTCTGCAACCATATCATTCTATTTCGGAGTCACCTAGTGCAG”: the binding signal was 9160 fluorescence intensity (a.u.).

Consider “CAACAGTCAGCACAGGCGTGTCCAATGCATGCCGACTCTTCGGAGTCACCTAGTGCAG”, for which the binding signal was 3160 fluorescence intensity (a.u.).

On to “CTCCGTTTTCATCCCTGGCCACCAGCGGTCATCCAGGATCCGGAGTCACCTAGTGCAG”, for which the binding signal is 4250 fluorescence intensity (a.u.).

For the sequence “TGTTTGGACATATGCATGGAGCATTAAATGTGGATGAAAACGGAGTCACCTAGTGCAG”, the binding signal is 4350 fluorescence intensity (a.u.).

With “TACTCGTCGTCATCCTCACCGTCTCTAATACATACTTCCCCGGAGTCACCTAGTGCAG”, the binding signal is 3470 fluorescence intensity (a.u.).

As for “AACTTGCAGGTACGCCGTCGGAGTGAACATCGTCGTCTGCCGGAGTCACCTAGTGCAG”, the binding signal is 8700 fluorescence intensity (a.u.).

For “CCCTTTCAAACACTTCCCAACTCATCACGCCTCTGGCAAACGGAGTCACCTAGTGCAG”, the binding signal is 4180 fluorescence intensity (a.u.).

For “ATCCCTAAACCACAATACCACATATGTCGATACCTCAACTCGGAGTCACCTAGTGCAG”, the binding signal is 3630 fluorescence intensity (a.u.).

In the case of “AGTCATCCAGTCATCGCTTGGTGGCACTCGCCGTCGCCGCCGGAGTCACCTAGTGCAG”, the binding signal was 6120 fluorescence intensity (a.u.).

As to “TGGATGTTGCATTTGGTACTTGATGTTGCAGGTGATTTCTCGGAGTCACCTAGTGCAG”, the binding signal is 4380 fluorescence intensity (a.u.).

On to “CAGCCGGCGATACTATTGAACCTGCTCCGATACTATTGAACGGAGTCACCTAGTGCAG”, for which the binding signal is 19500 fluorescence intensity (a.u.).

Turning to “TAGAAGCCCATTTAACAATTAGTTGGCGTCTCGCAATACACGGAGTCACCTAGTGCAG”, the binding signal is 31400 fluorescence intensity (a.u.).

Turning to “GTGCAAAAGGATGGGGAAGAGATAAGGTGTTCCCTGCTTTCGGAGTCACCTAGTGCAG”, the binding signal is 3450 fluorescence intensity (a.u.).

On to “TTCATTTCATATCATAAATCACTTTAACCCTTTTCTACCTCGGAGTCACCTAGTGCAG”, for which the binding signal was 13400 fluorescence intensity (a.u.).

Regarding “AAGTGCTCACGTCATGCCGACGCAGGCATATCATCCCCGACGGAGTCACCTAGTGCAG”, the binding signal was 12200 fluorescence intensity (a.u.).

For “CCAATCCAAACAAGGTTTGGGGATATTTCTGACACAGGGCCGGAGTCACCTAGTGCAG”, the binding signal was 30500 fluorescence intensity (a.u.).

Take “AATGCACAGCTAGTACTACTCGCGAGTCACCATCCATCTCCGGAGTCACCTAGTGCAG”: the binding signal is 3870 fluorescence intensity (a.u.).

As to “TCTCTCTCTATACTCCACTCATGTGCTGTACTACACTGACCGGAGTCACCTAGTGCAG”, the binding signal is 3660 fluorescence intensity (a.u.).

In the case of “CCATTTGTTTCACTTTACACCACACCTCATCTTCTCCAAGCGGAGTCACCTAGTGCAG”, the binding signal is 3880 fluorescence intensity (a.u.).

Take “CCTCCTCCCTCTCGTCCTGCGCCATCATGACGCCGCCGCGCGGAGTCACCTAGTGCAG”: the binding signal was 4390 fluorescence intensity (a.u.).

Take “GCCATATTTTCTGTTTTGTCATCAATATATGATTAGAAAACGGAGTCACCTAGTGCAG”: the binding signal is 3320 fluorescence intensity (a.u.).

As for “GGATAAGCACCGACGATTTGGTGGTAGATCTATATGGGTACGGAGTCACCTAGTGCAG”, the binding signal is 48000 fluorescence intensity (a.u.).

Take “GAGAAGCTGACATGTGGGTCTCACTGCTGAGTCAGCCGGTCGGAGTCACCTAGTGCAG”: the binding signal was 21700 fluorescence intensity (a.u.).

With “TTGGGAACCCATTGCTGCTGCAAATGGTGGATGAGTTGTCCGGAGTCACCTAGTGCAG”, the binding signal was 3470 fluorescence intensity (a.u.).

Take “CGCACCCGCCGCCACCTCACCGCCCGACGACGACGACGAGCGGAGTCACCTAGTGCAG”: the binding signal is 6010 fluorescence intensity (a.u.).

For the sequence “GAAGAGCTACATGTGCCCCAGTTGCAAGTCTACCCTAACACGGAGTCACCTAGTGCAG”, the binding signal is 3420 fluorescence intensity (a.u.).

Regarding “AGACGTGAGATGTAAGCAAGGAGCACACACACACACACACCGGAGTCACCTAGTGCAG”, the binding signal is 3270 fluorescence intensity (a.u.).
